Patent US20240301023A1 (priority 2020, published 2024)
Square brackets hold non-standard residues; d marks the D form. Peptide text beside a SMILES is read from it. Phe(4-NO2) = N[C@@H](Cc1ccc([N+](=O)[O-])cc1)C(=O)O; Phe(4-Cl) = N[C@@H](Cc1ccc(Cl)cc1)C(=O)O; NMeR = CN[C@@H](CCCNC(=N)N)C(=O)O; Aoc = NCCCCCCCC(=O)O; Sar = CNCC(=O)O

Test: Pharmacokinetic parameters after i.v. administration in rats
Assay type: in vivo
Settings: extraction from rat plasma for LCMS
Excerpt: Methods are as previously reported (Hill et al., ACS Med. Chem. Lett. 2014, 5(10), 1148-51; Lohman et al., Chem. Commun. (Camb), 2019, 55(89), 13362-13365; Neilsen et al., Org. Lett., 2012, 14(22), 5720-3; Neilsen et al, Chembiochem, 2015, 16(16), 2289-93; Justyna et al., Current Drug Targets, 2013, 14(7), 798-816)). Rats were surgically implanted with a jugular vein catheter (sterile polyethylene, o.d. 0.96 mm i.d. 0.58 mm, Microtube Extrusions, Aust.) and allowed to recover overnight. Baseline blood samples (t=0) were taken prior to peptide administration directly from the indwelling jugular vein catheter. Peptide was administered directly via the catheter (i.v route), followed by a 200 μL chaser volume of heparinised saline (20 U/mL) to flush the line. Further blood samples (200 μL/sample) were collected directly from the intravenous catheter at t=1, 5 15, 30, 60, 90 120 as 180 minutes post-administration. Volumes taken were replaced with heparinised saline to avoid hypovolaemia. […]
Samples were analysed using MassHunter Software packages, and area under the curve (AUC) was measured for each peak of interest in the MRM, as a direct measure of concentration of compound ions in the sample. […] Data was analysed using MS Excel software. […] Plasma half-life, volume of distribution and clearance were determined from the steady-state elimination phase.

Structure (SMILES): CC(C)C[C@H](NC(=O)[C@H](Cc1ccc([N+](=O)[O-])cc1)NC(=O)CN(C)C(=O)[C@@H](N)Cc1ccc(O)cc1)C(=O)N(C)[C@@H](CCCNC(=N)N)C(=O)N(C)[C@@H](CCCNC(=N)N)C(N)=O [SEQ ID NO. 19, NH2-Tyr-Sar-(4-NO2)Phe-Leu-NMA-NMA-NH2] (H-Y[Sar][Phe(4-NO2)]L[NMeR][NMeR]-NH2)
- Extract efficiency (%): 54.4%

Structure (SMILES): CC(C)C[C@H](NC(=O)[C@H](Cc1ccc(Cl)cc1)NC(=O)CN(C)C(=O)[C@@H](N)Cc1ccc(O)cc1)C(=O)N[C@@H](CCCNC(=N)N)C(=O)N[C@H](CCCNC(=N)N)C(=O)NCCCCCCCC(N)=O [SEQ ID NO. 24, NH2-Tyr-Sar-(4-Cl)Phe-Leu-Arg-DArg-C7H14-CONH2] (H-Y[Sar][Phe(4-Cl)]LR[dR][Aoc]-NH2)
- Extract efficiency (%): 62.4%
